{"source": "patent US20250129076A1", "about": "“FUSED TETRACYCLIC COMPOUNDS, COMPOSITIONS AND DIAGNOSTIC APPLICATIONS THEREOF” (priority 2021, published 2025)", "tested_on": "live/Fixed cell", "assay": "Comparison with commonly available DNA staining agents: cell staining performance (Table 3)", "format": "cell-based", "note": "Some results come without the dose or concentration used.", "data": [{"compound": "N=C(N)c1ccc(-c2cc3ccc(C(=N)N)cc3[nH]2)cc1", "note": "[DAPI]", "values": [{"measurement": "Speed (Incubation)", "result": "15 to 30", "unit": "min"}]}]}
